In PMC10837246:
Results are given in words; binding and its absence hold for the method and conditions named. Binding seen in cells or lysates may run through a third protein. Some binding calls cover weakened binding; strength is not graded here.

Amino acid sequences for entries named in this document (tags omitted). Residues count along the entry.
UniProt Q62407, residues 855-3262: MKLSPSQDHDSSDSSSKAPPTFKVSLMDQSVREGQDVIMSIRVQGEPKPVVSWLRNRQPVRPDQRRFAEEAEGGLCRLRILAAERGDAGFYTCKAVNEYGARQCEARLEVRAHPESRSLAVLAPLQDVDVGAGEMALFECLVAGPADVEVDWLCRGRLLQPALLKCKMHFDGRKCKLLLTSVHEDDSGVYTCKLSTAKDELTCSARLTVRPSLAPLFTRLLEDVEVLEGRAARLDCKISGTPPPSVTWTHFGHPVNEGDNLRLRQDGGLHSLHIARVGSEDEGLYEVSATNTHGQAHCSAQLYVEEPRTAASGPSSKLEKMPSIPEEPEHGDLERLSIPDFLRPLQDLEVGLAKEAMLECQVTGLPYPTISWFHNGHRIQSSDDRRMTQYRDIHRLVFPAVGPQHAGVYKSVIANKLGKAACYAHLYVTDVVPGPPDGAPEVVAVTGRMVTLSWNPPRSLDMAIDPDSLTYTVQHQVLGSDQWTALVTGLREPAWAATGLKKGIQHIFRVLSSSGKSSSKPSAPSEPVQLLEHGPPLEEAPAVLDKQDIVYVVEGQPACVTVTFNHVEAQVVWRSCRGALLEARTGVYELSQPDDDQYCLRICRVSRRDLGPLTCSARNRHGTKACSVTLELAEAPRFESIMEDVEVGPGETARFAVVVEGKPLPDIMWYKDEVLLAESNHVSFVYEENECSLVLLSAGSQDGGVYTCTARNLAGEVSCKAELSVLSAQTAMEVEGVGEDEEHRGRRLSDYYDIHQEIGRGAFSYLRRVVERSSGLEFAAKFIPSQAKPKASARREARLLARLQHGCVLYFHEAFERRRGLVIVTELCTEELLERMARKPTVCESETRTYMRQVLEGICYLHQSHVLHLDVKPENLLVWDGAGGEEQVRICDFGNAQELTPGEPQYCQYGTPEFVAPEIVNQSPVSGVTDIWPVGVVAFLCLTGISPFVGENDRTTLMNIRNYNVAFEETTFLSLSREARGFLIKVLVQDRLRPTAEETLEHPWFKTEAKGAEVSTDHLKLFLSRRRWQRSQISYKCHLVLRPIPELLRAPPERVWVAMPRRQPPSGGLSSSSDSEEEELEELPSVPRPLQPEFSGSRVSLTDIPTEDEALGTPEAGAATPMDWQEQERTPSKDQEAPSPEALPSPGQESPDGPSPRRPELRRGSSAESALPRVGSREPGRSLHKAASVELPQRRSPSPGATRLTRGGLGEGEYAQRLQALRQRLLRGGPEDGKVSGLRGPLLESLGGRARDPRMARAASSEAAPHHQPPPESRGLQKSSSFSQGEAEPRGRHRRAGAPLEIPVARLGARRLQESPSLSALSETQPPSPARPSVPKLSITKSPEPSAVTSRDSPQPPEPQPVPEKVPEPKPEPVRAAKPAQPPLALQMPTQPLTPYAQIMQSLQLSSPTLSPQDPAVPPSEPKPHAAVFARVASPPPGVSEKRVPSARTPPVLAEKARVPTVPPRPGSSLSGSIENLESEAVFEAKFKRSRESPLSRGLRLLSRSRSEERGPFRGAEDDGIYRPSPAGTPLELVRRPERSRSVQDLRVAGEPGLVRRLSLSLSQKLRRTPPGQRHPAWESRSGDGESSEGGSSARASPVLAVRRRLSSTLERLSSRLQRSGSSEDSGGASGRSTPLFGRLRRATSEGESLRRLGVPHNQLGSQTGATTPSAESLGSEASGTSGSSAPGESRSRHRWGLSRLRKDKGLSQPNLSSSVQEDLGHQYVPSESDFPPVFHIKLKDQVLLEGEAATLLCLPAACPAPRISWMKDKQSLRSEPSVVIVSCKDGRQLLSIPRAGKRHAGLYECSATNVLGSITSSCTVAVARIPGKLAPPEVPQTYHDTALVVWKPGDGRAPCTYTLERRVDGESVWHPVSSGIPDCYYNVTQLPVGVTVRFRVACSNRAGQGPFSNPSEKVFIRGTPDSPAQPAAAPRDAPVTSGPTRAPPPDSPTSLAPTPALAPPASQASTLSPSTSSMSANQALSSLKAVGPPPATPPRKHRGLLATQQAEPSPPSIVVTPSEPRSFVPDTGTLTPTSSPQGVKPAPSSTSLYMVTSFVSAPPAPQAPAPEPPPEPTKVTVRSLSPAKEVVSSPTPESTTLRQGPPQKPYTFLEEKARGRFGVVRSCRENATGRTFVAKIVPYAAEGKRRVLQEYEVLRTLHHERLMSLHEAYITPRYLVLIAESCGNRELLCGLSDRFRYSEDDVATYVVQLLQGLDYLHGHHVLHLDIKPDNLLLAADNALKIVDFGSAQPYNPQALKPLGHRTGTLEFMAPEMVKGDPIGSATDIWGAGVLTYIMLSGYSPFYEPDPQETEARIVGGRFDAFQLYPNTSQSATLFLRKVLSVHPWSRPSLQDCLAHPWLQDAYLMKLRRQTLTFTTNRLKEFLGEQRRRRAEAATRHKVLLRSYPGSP

Target: Striated preferentially expressed gene (Speg), Spegα isoform (mouse (endogenous in adult mouse heart)) (UniProt Q62407)
Assay: co-IP; adult mouse heart homogenised in Pierce IP lysis buffer with protease and phosphatase inhibitors; 1500 μg protein pre-cleared, incubated with Speg or PGC-1α antibody overnight at 4 °C, magnetic Protein-A Dynabeads 2 h at 4 °C; Western blot; normal rabbit IgG as control

Row | binding | Binder
1 | no binding | Mitochondrial Na+/Ca2+/Li+ exchanger (NCLX) (protein, UniProt Q925Q3 27-585) TGDPSTKAHGHIQFSAGSVNQTAMADCRAVCGLNTSDRCDFVRRNPDCRSEAGYLDYLEGIFCYFPPNLLPLAITLYVFWLLYLFLILGVTAAKFFCPNLSAISTNLKLSHNVAGVTFLAFGNGAPDIFSALVAFSDPRTAGLAIGALFGAGVLVTTVVAGGITILHPFMAASRPFLRDIAFYMVAVFLTFTALYLGRITLTWALGYLGLYVFYVVTVIICTWVYQRQRSRSLVHSISETPELLSESEEDQMSSNTNSYDYGDEYRPLLLGRETTVQILIQALNPLDYRKWRTQSISWRVLKVVKLPVEFLLLLTVPVVDPDKDDRNWKRPLNCLQLVISPLVLVLTLQSGVYGIYEIGGLLPVWAVVVIVGTALASVTFFATSNREPPRLHWLFAFLGFLTSALWINAAATEVVNILRSLGVIFRLSNTVLGLTLLAWGNSIGDAFSDFTLARQGYPRMAFSACFGGIIFNILVGVGLGCLLQIIRNHVVEVKLEPDGLLVWVLASALGLSLIFSLVSVPLQCFQLSKAYGLCLLLFYICFLVVVLLTEFGVIHLKKA
2 | binds | Peroxisome proliferator-activated receptor γ coactivator 1α (PGC-1α) (protein, UniProt O70343 1-797) MAWDMCSQDSVWSDIECAALVGEDQPLCPDLPELDLSELDVNDLDTDSFLGGLKWCSDQSEIISNQYNNEPANIFEKIDEENEANLLAVLTETLDSLPVDEDGLPSFDALTDGAVTTDNEASPSSMPDGTPPPQEAEEPSLLKKLLLAPANTQLSYNECSGLSTQNHAANHTHRIRTNPAIVKTENSWSNKAKSICQQQKPQRRPCSELLKYLTTNDDPPHTKPTENRNSSRDKCASKKKSHTQPQSQHAQAKPTTLSLPLTPESPNDPKGSPFENKTIERTLSVELSGTAGLTPPTTPPHKANQDNPFKASPKLKPSCKTVVPPPTKRARYSECSGTQGSHSTKKGPEQSELYAQLSKSSGLSRGHEERKTKRPSLRLFGDHDYCQSLNSKTDILINISQELQDSRQLDFKDASCDWQGHICSSTDSGQCYLRETLEASKQVSPCSTRKQLQDQEIRAELNKHFGHPCQAVFDDKSDKTSELRDGDFSNEQFSKLPVFINSGLAMDGLFDDSEDESDKLSYPWDGTQPYSLFDVSPSCSSFNSPCRDSVSPPKSLFSQRPQRMRSRSRSFSRHRSCSRSPYSRSRSRSPGSRSSSRSCYYYESSHYRHRTHRNSPLYVRSRSRSPYSRRPRYDSYEAYEHERLKRDEYRKEHEKRESERAKQRERQKQKAIEERRVIYVGKIRPDTTRTELRDRFEVFGEIEECTVNLRDDGDSYGFITYRYTCDAFAALENGYTLRRSNETDFELYFCGRKQFFKSNYADLDTNSDDFDPASTKSKYDSLDFDSLLKEAQRSLRR
